The assay deals with CXCR4-BirA (human CXCR4 with the E. coli biotin ligase BirA fused to its N terminus) (human) (UniProt P61073). The experiment in a line: proximity labelling; competition: CXCR4-BirA and CCR2-AP co-expressed in RPE cells with or without CCR2-no AP; biotinylation of CCR2-AP read by flow cytometry. In general terms: Flow cytometry measures light scatter and fluorescence of single cells or particles in a stream.

By UniProt entry, the sequences of proteins in these tests, tags left out.
UniProt P61073: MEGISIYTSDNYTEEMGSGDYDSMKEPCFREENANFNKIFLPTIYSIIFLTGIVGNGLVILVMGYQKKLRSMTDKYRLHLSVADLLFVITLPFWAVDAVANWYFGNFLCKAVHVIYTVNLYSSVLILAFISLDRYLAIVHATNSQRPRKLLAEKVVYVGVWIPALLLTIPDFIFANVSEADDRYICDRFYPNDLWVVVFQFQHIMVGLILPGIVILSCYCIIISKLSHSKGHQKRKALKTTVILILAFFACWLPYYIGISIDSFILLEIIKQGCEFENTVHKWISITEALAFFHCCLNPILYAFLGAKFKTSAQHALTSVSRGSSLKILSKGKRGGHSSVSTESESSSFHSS
UniProt P41597: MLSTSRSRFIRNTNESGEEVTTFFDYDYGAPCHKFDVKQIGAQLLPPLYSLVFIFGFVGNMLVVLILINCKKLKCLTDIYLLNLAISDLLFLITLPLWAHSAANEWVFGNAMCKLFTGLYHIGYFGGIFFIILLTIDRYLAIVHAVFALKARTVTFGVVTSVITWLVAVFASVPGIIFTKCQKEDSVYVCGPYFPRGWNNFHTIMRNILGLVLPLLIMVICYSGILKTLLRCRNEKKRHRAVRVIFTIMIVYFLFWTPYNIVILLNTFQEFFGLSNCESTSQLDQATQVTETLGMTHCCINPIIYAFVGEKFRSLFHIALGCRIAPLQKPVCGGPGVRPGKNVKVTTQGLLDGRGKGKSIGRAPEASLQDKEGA

No constants are given. Whether binding was seen depends on the method and setting. Binding seen in cells or lysates may run through a third protein. A yes stands for co-enrichment or nearness to the bait. Other partners may have been found.

For “CCR2-no AP (CCR2 construct lacking the fused acceptor peptide) (from UniProt P41597 1-374) (receptor)”, the binding entry is “binds”.

(Values after article PMC3972117.)
